Measurements reported in PubChem BioAssay AID686938 (Drosophila RNAi Screening Center, 2013)
Test: 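Looking for CRAC channel components and the factors controlling them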 (primary screen). System: Drosophila S2R+ cells. Reagent: long dsRNA against Drosophila genes, about 0.25 µg dsRNA per well, roughly 10,000 cells. Time to read-out: 5 days of knock-down before the calcium assay. Conditions: thapsigargin (SERCA pump blocker) to empty calcium stores; entry signal taken 4 min after adding it. Measured: 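Per-well fluo-4 fluorescence in two replicates, unnormalised, measured in resting cells and 4 min after store depletion by the SERCA blocker thapsigargin; ratio of the two present in few wells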. Reading the numbers: calcium entry signal: higher = stronger calcium signal after store depletion; resting calcium signal: higher = higher resting calcium signal. Units: calcium entry signal in fluorescence units; resting calcium signal in fluorescence units. Active means: 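Called when the plate z-score of the entry-to-rest ratio, mean of duplicates, falls below −3; wells with low overall dye signal (Fmax z below −2) or more than five off-targets excluded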. Meaning of the calls: active = strongly reduced calcium entry; inactive = no strong reduction.
In all, the deposit lists about 23,000 reagents; below is a random part of those with a known target gene and a result. Over the whole deposit, 75 (0.33%) are marked active. 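Raw plate signals without normalisation; calls rest on plate z-scores that were not deposited; ratio present for only 364 wells.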 Reagents against one gene are numbered here. Not stated in the record: the dose of the treatment.

Srrm234 #1 scored calcium entry signal, replicate 1 = 3.71e7; calcium entry signal, replicate 2 = 3.02e7; resting calcium signal, replicate 1 = 1.67e7; resting calcium signal, replicate 2 = 1.26e7; inactive.
After knock-down of Srrm234 #2 the results were calcium entry signal, replicate 1 = 3.91e7; calcium entry signal, replicate 2 = 3.73e7; resting calcium signal, replicate 1 = 1.69e7; resting calcium signal, replicate 2 = 1.87e7; inactive.
Knock-down of CG31642 came out at: calcium entry signal, replicate 1 = 4.69e7; resting calcium signal, replicate 1 = 2.39e7; inactive.
Knock-down of Obp58d resulted in: calcium entry signal, replicate 1 = 3.90e7; calcium entry signal, replicate 2 = 4.03e7; resting calcium signal, replicate 1 = 1.91e7; resting calcium signal, replicate 2 = 1.84e7; inactive.
Knock-down of Sol1 #1 came out at: calcium entry signal, replicate 1 = 3.17e7; calcium entry signal, replicate 2 = 3.09e7; resting calcium signal, replicate 1 = 1.66e7; resting calcium signal, replicate 2 = 1.68e7; inactive.
Against Sol1 #2, the entry reads calcium entry signal, replicate 1 = 3.40e7; calcium entry signal, replicate 2 = 3.59e7; resting calcium signal, replicate 1 = 1.60e7; resting calcium signal, replicate 2 = 1.92e7; inactive.
Silencing of Sol1 #3 came out at: calcium entry signal, replicate 1 = 3.07e7; calcium entry signal, replicate 2 = 3.40e7; resting calcium signal, replicate 1 = 1.55e7; resting calcium signal, replicate 2 = 1.73e7; inactive.

In a second layout: entries from further up
| gene | dsRNA no. | calcium entry signal, replicate 1 | calcium entry signal, replicate 2 | resting calcium signal, replicate 1 | resting calcium signal, replicate 2 | call |
| --- | --- | --- | --- | --- | --- | --- |
| Sol1 | 2 | 3.40e7 | 3.59e7 | 1.60e7 | 1.92e7 | inactive |
| Sol1 | 3 | 3.07e7 | 3.40e7 | 1.55e7 | 1.73e7 | inactive |

Further results follow:
CG33922 scored calcium entry signal, replicate 1 = 2.80e7; calcium entry signal, replicate 2 = 4.24e7; resting calcium signal, replicate 1 = 1.45e7; resting calcium signal, replicate 2 = 2.06e7; inactive.
Silencing of Trs31 came out at: calcium entry signal, replicate 1 = 4.80e7; calcium entry signal, replicate 2 = 4.09e7; resting calcium signal, replicate 1 = 2.14e7; resting calcium signal, replicate 2 = 2.12e7; inactive.
For CG5681, the values are calcium entry signal, replicate 1 = 4.48e7; calcium entry signal, replicate 2 = 3.59e7; resting calcium signal, replicate 1 = 2.07e7; resting calcium signal, replicate 2 = 1.81e7; inactive.
Depletion of Tom7 #1 gave: calcium entry signal, replicate 1 = 2.21e7; calcium entry signal, replicate 2 = 3.62e7; resting calcium signal, replicate 1 = 1.15e7; resting calcium signal, replicate 2 = 1.53e7; inactive.
With knock-down of Tom7 #2, the record shows calcium entry signal, replicate 1 = 2.83e7; calcium entry signal, replicate 2 = 3.76e7; resting calcium signal, replicate 1 = 1.46e7; resting calcium signal, replicate 2 = 1.73e7; inactive.
